No constants are given. Whether binding was seen depends on the method and setting. In cells and extracts the contact can be indirect. These calls come from enrichment with a bait or labelling near it, and not all partners need be listed. Where a sequence is shown, tags or fusion partners need not be part of it.
Target: FLAG-HA-iASPP (stably expressed in HeLa cells) (UniProt Q8WUF5)
Assay: affinity purification with mass spectrometry; tandem affinity purification from HeLa cells stably expressing the FLAG-HA-tagged bait (iASPP or CEP55): lysis in BC100 buffer (20 mM Tris-Cl pH 7.9, 100 mM NaCl, 0.2 mM EDTA, 20% glycerol) with 0.2% Triton X-100; anti-FLAG M2 agarose, FLAG peptide elution, then anti-HA agarose, HA peptide elution; SDS-PAGE, gel bands sequenced by LC-MS/MS

binding	Binder
binds	golgin84 (Golgi apparatus protein), endogenous (protein, UniProt Q8TBA6 1-731) MSWFVDLAGKAEDLLNRVDQGAATALSRKDNASNIYSKNTDYTELHQQNTDLIYQTGPKSTYISSAADNIRNQKATILAGTANVKVGSRTPVEASHPVENASVPRPSSHFVRRKKSEPDDELLFDFLNSSQKEPTGRVEIRKEKGKTPVFQSSQTSSVSSVNPSVTTIKTIEENSFGSQTHEAASNSDSSHEGQEESSKENVSSNAACPDHTPTPNDDGKSHELSNLRLENQLLRNEVQSLNQEMASLLQRSKETQEELNKARARVEKWNADHSKSDRMTRGLRAQVDDLTEAVAAKDSQLAVLKVRLQEADQLLSTRTEALEALQSEKSRIMQDQSEGNSLQNQALQTFQERLHEADATLKREQESYKQMQSEFAARLNKVEMERQNLAEAITLAERKYSDEKKRVDELQQQVKLYKLNLESSKQELIDYKQKATRILQSKEKLINSLKEGSGFEGLDSSTASSMELEELRHEKEMQREEIQKLMGQIHQLRSELQDMEAQQVNEAESAREQLQDLHDQIAGQKASKQELETELERLKQEFHYIEEDLYRTKNTLQSRIKDRDEEIQKLRNQLTNKTLSNSSQSELENRLHQLTETLIQKQTMLESLSTEKNSLVFQLERLEQQMNSASGSSSNGSSINMSGIDNGEGTRLRNVPVLFNDTETNLAGMYGKVRKAASSIDQFSIRLGIFLRRYPIARVFVIIYMALLHLWVMIVLLTYTPEMHHDQPYGK
binds	NFKB2 (NF-κB subunit), endogenous (protein, UniProt Q00653 1-900) MESCYNPGLDGIIEYDDFKLNSSIVEPKEPAPETADGPYLVIVEQPKQRGFRFRYGCEGPSHGGLPGASSEKGRKTYPTVKICNYEGPAKIEVDLVTHSDPPRAHAHSLVGKQCSELGICAVSVGPKDMTAQFNNLGVLHVTKKNMMGTMIQKLQRQRLRSRPQGLTEAEQRELEQEAKELKKVMDLSIVRLRFSAFLRASDGSFSLPLKPVISQPIHDSKSPGASNLKISRMDKTAGSVRGGDEVYLLCDKVQKDDIEVRFYEDDENGWQAFGDFSPTDVHKQYAIVFRTPPYHKMKIERPVTVFLQLKRKRGGDVSDSKQFTYYPLVEDKEEVQRKRRKALPTFSQPFGGGSHMGGGSGGAAGGYGGAGGGGSLGFFPSSLAYSPYQSGAGPMGCYPGGGGGAQMAATVPSRDSGEEAAEPSAPSRTPQCEPQAPEMLQRAREYNARLFGLAQRSARALLDYGVTADARALLAGQRHLLTAQDENGDTPLHLAIIHGQTSVIEQIVYVIHHAQDLGVVNLTNHLHQTPLHLAVITGQTSVVSFLLRVGADPALLDRHGDSAMHLALRAGAGAPELLRALLQSGAPAVPQLLHMPDFEGLYPVHLAVRARSPECLDLLVDSGAEVEATERQGGRTALHLATEMEELGLVTHLVTKLRANVNARTFAGNTPLHLAAGLGYPTLTRLLLKAGADIHAENEEPLCPLPSPPTSDSDSDSEGPEKDTRSSFRGHTPLDLTCSTKVKTLLLNAAQNTMEPPLTPPSPAGPGLSLGDTALQNLEQLLDGPEAQGSWAELAERLGLRSLVDTYRQTTSPSGSLLRSYELAGGDLAGLLEALSDMGLEEGVRLLRGPETRDKLPSTAEVKEDSAYGSQSVEQEAEKLGPPPEPPGGLCHGHPQPQVH

Source: publication PMC5943338
